Values from PubChem BioAssay AID1159584 (Peter MacCallum Cancer Centre, 2016)
Shown is an unselected part of about 18,000 deposited reagents. Reagents against one gene are numbered here. Further read-outs or replicates are left out here. No sequences are given here. Not stated in the record: the amount of reagent, the time to read-out.

- Assay: 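Knock-downs that harm CDH1-null cells more than parental MCF10A cells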 (primary screen)
- Cell system: human MCF10A breast epithelial cells, parental and CDH1-null
- Knock-down reagent: siRNA against human genes
- Read-out: 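Cell viability by CellTiter-Glo ATP luminescence, each line scaled to the mean of mock wells across plates, then CDH1-null over parental ratio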
- Scale: CDH1-null / parental viability ratio: higher = CDH1-null cells survive relatively better than parental

The first 3 records as a preview:
gene knocked down	siRNA no.	CDH1-null / parental viability ratio
LAGE3	1	0.84
DTD2	1	1.03
MRPS18C	1	0.77

The listing, from the first entry:
gene knocked down	siRNA no.	CDH1-null / parental viability ratio
LAGE3	1	0.84
DTD2	1	1.03
MRPS18C	1	0.77
ATN1	1	0.84
SLC6A5	1	0.9
PANK4	1	0.8
UBE2D4	1	1.16
IFIT2	1	0.98
FPGT	1	1.06
TBX3	1	1.03
FGFBP2	1	1.1
RPS27A	1	1.82
MPHOSPH10	1	1
KMT2C	1	0.97
MFSD11	1	0.63
POU4F3	1	1.07
TAPBPL	1	1.4
TAS2R3	1	1.2
PRR36	1	1.12
PLGLB2	1	1.11
CTAGE15	1	0.81
UQCR11	1	1.04
SLC68A1	1	1.02
DEK	1	0.91
NLRP8	1	1.08
GGN	1	1.13
CDYL2	1	1.07
NFAT5	1	0.94
APEH	1	1.09
OR13J1	1	0.82
FAAH2	1	0.97
SGCG	1	0.88
MAFK	1	1.03
KCNH5	1	1.11
HAUS2	1	1.06
SLC9D1	1	1.01
SLC39A1	1	1.01
SERF1A	1	0.79
ST6GALNAC6	1	1.09
PPP1R18	1	1.01
KIF5C	1	1.03
RPS6KA1	1	1.09
SPRY4	1	1
PTGDR	1	1.18
NMRK2	1	0.83
AGAP3	1	0.64
ARG2	1	1.09
PTK2B	1	0.88
C1orf116	1	1.05
BORCS7	1	1.55
SNX29	1	0.97
SNX29	2	1.06
RABGAP1L	1	0.77
GNB5	1	1.09
OR2L2	1	1.13
TMC8	1	1.52
DGAT1	1	1.03
IQCF1	1	1.05
H3C1	1	1.15
KIAA0825	1	0.97
UNC5B	1	1.01
DDX56	1	1.05
TSSK3	1	0.69
MYOCD	1	1.19
GON7	1	1.1
TRIM16L	1	1.16
DMRT1	1	1.22
CELF2	1	1
VPS13B	1	1.02
USF1	1	1.13
STX5	1	0.59
ARL2BP	1	1.23
A3GALT2	1	0.92
VN1R1	1	0.81
GAL3ST4	1	0.8
ZNF768	1	0.98
C1orf74	1	1.49
WIPF2	1	0.91
ERG	1	0.87
CT45A3	1	1.28
CT45A3	2	1.21
RAD21	1	1.08
C17orf75	1	0.82
AP4E1	1	1.21
RNFT2	1	1.09
ZBTB12	1	1.09
RFX5	1	1.04
